Our source for the binding values is patent KR20220001106A.

The chains behind the UniProt entries cited, without tags or fusion partners. Where a name states a change or a piece, a line headed by the entry shows the natural chain unless it says otherwise. A line that says so, or that is headed by a name, gives the form on record, which may keep a tag or linker. Residues count along the entry.
UniProt P12314, residues 16-288: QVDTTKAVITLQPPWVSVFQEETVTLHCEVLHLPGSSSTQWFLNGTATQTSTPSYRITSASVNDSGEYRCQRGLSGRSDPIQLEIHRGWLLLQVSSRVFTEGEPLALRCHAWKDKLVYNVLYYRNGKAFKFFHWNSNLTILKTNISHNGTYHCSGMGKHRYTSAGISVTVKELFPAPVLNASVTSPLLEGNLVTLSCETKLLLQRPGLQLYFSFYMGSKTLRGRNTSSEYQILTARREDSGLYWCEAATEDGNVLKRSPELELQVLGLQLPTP
UniProt P55899: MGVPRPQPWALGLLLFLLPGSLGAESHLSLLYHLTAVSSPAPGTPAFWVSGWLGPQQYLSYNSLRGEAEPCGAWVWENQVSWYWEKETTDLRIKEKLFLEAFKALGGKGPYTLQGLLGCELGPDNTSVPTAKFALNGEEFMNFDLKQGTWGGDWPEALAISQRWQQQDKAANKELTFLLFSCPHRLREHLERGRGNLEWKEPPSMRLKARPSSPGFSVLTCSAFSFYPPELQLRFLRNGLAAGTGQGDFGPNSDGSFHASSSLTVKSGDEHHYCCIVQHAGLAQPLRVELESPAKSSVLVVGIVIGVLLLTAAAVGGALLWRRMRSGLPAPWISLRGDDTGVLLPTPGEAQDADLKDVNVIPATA
hVEGF (P15692, form named): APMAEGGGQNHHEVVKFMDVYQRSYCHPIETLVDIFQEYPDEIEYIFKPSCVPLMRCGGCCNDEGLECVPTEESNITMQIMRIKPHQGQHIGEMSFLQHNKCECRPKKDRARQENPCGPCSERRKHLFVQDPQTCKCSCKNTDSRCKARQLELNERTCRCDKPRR

Numbering of substitutions follows the chain as printed. Results are given in words; binding and its absence hold for the method and conditions named. Some entries that bind do so weakly or less than the wild type.

The target of test [1] is FcγRⅠ (R&D system, 1257-Fc) (UniProt P12314). Briefly: Octet BLI, receptor on anti-penta-His sensor, antibody 100 nM as analyte. (Biolayer interferometry detects binding as a change in optical thickness at a sensor tip.)
Test [2] deals with FcRn (R&D system, 8639-Fc) (UniProt P55899). Briefly: Octet BLI, antibody on FAB2G sensor, FcRn 400 nM as analyte, pH 6.0.
Another test addresses hVEGF (human) (UniProt P15692). Briefly: ELISA, hVEGF coated at 500 ng/ml, anti-hIgG-Fc HRP detection.

B1: Hz2-F (antibody with SEQ ID NO 32 and SEQ ID NO 31) (antibody, human IgG1, L234A L235A, V domains shown)
VH: EVQLVESGGGLVQPGGSLRLSCAVSGIDLNRYSLTWIRQAPGKGLEWVAIVGGSGVTYYANWAKGRFTISRDDSKNTLYLQMNSLRAEDTAVYYCARGSDRSAYAPDIWGQGTLVTVSS
VL: DIQLTQSPSSLSASVGDRVTITCQSSQSIYSNNYLAWYQQKPGKAPKLLLYQASKLASGVPSRFSGSGSGTDFTLTISSLQPEDFATYYCLGVYDDDADNAFGQGTKVEIKR
On to B1, for which the binding result in test [1] and in test [2] was “binds” in each case.

B2: Hz1 (humanized antibody made with SEQ ID NO 28 and SEQ ID NO 29) (antibody, V domains shown)
VH: B1 VH with Q13K, V24A, I37V, A49G, D73S, S74A, T77S, Y94F, Q111P
VL: B1 VL with L4M, T22N, A45P, F85V, Q104G, K107E, V108L
For the molecule B2, the binding entry with hVEGF (human) was “binds”.

B3: RIgG1 (rabbit antibody made with SEQ ID NO 24 and SEQ ID NO 25) (antibody, V domains shown)
VH: QSVEESGGRLVTPGTPLTLTCTVSGIDLNRYSLTWVRQAPGKGLEWIGIVGGSGVTYYANWTKGRFTISKTSTTVDLKMTSLTTEDTATYFCARGSDRSAYAPDIWGPGTLVTISS
VL: ELDMTQTPSSVSAAVGGTVTINCQSSQSVYSNNYLAWYQQKPGQPPKLLLYQASKLASGVSSRFSGSGSGTHFTLTISGVQCDDAATYYCLGVYDDDADNAFGGGTELEILR
For the molecule B3, in the test with hVEGF (human), the binding entry was “binds”.
